Measured values as given in US9408853B2, “Iridium/rhodium anti-cancer compounds” (University of Warwick, priority 2010, dated 2016).

Test: Reaction of ZL33A with 1,4-NADH (hydride transfer, 1H NMR)
[1] = ZL33A:1,4-NADH 1:3, 298 K, 10 min
[2] = ZL33A:1,4-NADH 1:3, 298 K, 22 h
[3] = ZL33A:1,4-NADH 1:3, 298 K, 33 h
[4] = ZL33A:1,4-NADH 1.5:1, 298 K, 10 min
[5] = ZL33A:1,4-NADH 1.5:1, 298 K, 2 h
[6] = ZL33A:1,4-NADH 1.5:1, 298 K, 10 h

## [(η^5-C5Me4C6H5)Ir(phen)(H2O)]^2+ [ZL33A]
1,4-NADH:ZL33A 1:1.5, <10 min
  1,4-NADH reacted with the aqua complex (in words): all the 1,4-NADH reacted
[1]
  Integral ratio, 1,4-NADH (NAD+ = 1): 1.45
  Integral ratio, Aqua complex (NAD+ = 1): 0.25
  Integral ratio, Hydride complex (NAD+ = 1): 0.6
[2]
  Integral ratio, 1,4-NADH (NAD+ = 1): 1.3
  Integral ratio, Aqua complex (NAD+ = 1): 0.16
  Integral ratio, Hydride complex (NAD+ = 1): 0.5
[3]
  Integral ratio, 1,4-NADH (NAD+ = 1): 0.5
  Integral ratio, Aqua complex (NAD+ = 1): 0.45
  Integral ratio, Hydride complex (NAD+ = 1): 0.07
[4]
  Integral ratio, Aqua complex (NAD+ = 1): 1
  Integral ratio, Hydride complex (NAD+ = 1): 0.5
[5]
  Integral ratio, Aqua complex (NAD+ = 1): 1.3
  Integral ratio, Hydride complex (NAD+ = 1): 0.25
[6]
  Integral ratio, Aqua complex (NAD+ = 1): 1.6
  Integral ratio, Hydride complex (NAD+ = 1): 0
Three equiv 1,4-NADH, 2 mM ZL33A, 298 K, within 10 min
  1,4-NADH reacted with the aqua complex: 40%
